In PMC12018991:
These are yes or no findings as the source states them, for the method shown. In cells and extracts the contact can be indirect. Some entries that bind do so weakly or less than the wild type.

The chains behind the UniProt entries cited, without tags or fusion partners.
UniProt Q04206: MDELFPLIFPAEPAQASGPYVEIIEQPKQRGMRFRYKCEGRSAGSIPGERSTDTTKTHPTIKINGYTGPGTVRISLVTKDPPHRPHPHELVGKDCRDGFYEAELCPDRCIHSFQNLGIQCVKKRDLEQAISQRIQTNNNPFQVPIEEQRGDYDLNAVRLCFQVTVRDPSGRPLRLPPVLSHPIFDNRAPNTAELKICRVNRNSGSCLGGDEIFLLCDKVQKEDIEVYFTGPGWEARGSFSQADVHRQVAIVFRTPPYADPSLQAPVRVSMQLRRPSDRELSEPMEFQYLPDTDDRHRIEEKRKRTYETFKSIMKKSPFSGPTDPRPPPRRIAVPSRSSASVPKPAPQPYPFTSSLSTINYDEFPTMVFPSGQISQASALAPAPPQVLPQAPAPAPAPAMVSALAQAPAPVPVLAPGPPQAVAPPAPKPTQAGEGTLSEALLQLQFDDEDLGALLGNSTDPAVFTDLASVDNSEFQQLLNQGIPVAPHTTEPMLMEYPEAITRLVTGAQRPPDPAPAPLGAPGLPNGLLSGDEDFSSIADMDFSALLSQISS
UniProt P46937: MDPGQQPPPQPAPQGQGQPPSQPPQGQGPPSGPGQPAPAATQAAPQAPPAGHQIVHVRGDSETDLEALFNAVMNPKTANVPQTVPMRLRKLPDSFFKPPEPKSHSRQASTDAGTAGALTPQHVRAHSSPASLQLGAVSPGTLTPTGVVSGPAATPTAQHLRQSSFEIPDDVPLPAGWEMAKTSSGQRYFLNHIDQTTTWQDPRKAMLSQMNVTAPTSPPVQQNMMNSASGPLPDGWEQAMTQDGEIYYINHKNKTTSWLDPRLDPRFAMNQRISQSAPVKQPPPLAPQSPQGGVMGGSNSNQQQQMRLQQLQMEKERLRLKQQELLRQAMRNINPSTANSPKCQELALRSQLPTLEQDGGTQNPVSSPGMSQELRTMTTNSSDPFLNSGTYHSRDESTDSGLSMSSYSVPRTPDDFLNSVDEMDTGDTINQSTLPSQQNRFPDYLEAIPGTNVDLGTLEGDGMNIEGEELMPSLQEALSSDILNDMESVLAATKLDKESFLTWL

Assays:
[1] = molecular target: NF-κB subunit p65 (endogenous, 786-O cells) (human (endogenous in 786-O)) (UniProt Q04206); assay: co-IP; endogenous proteins; 786-O cell lysates incubated with anti-p65 antibody or control IgG overnight at 4 °C, Protein A resin, Western blot; cells grown without or with 2 μM XMU-MP-1 for 6 h
[2] = molecular target: Myc-tagged p65 (UniProt Q04206); assay: co-IP; HEK293A cells transfected with Myc-p65, HA-ZHX2, Fg-YAP-5SA and/or TEAD4-GFP (fixed amounts of some, increasing amounts of one); lysates precipitated with anti-Myc antibody overnight, Protein A resin, Western blot for the tags, endogenous TEAD4 or endogenous YAP

binding [1] | binding [2] | Substance
binds |  | Yes1-associated transcriptional regulator (endogenous, 786-O cells) (from UniProt P46937 1-504)
 | binds | YAP (endogenous, HEK293 cells) (from UniProt P46937 1-504)
